Publication PMC6600216
These are yes or no findings as the source states them, for the method shown. In cells and extracts the contact can be indirect. Some entries that bind do so weakly or less than the wild type. For part of these data: Where a sequence is shown, tags or fusion partners need not be part of it.

Assays:
[1] = target: T1, Flag-tagged fragment of SHIP2 (residues 424–727) with the IPP5c domain (human) (UniProt O15357); assay: pull-down; Flag-tagged full-length or truncated SHIP2 overexpressed in HEK293T cells and endogenous IRTKS; the text says the Flag proteins pull down IRTKS, the legend that they were pulled down by endogenous IRTKS
T1 sequence: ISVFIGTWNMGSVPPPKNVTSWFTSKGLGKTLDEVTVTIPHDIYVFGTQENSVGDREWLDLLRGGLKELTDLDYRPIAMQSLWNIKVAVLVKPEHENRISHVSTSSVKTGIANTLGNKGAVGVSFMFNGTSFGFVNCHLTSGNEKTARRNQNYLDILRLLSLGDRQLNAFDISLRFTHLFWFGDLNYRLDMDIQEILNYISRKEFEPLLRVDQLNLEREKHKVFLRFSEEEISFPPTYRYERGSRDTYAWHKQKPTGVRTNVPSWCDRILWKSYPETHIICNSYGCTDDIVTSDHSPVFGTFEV

[2] = target: T2, Flag-tagged full-length SHIP2 (human) (UniProt O15357); assay: as above
T2 sequence: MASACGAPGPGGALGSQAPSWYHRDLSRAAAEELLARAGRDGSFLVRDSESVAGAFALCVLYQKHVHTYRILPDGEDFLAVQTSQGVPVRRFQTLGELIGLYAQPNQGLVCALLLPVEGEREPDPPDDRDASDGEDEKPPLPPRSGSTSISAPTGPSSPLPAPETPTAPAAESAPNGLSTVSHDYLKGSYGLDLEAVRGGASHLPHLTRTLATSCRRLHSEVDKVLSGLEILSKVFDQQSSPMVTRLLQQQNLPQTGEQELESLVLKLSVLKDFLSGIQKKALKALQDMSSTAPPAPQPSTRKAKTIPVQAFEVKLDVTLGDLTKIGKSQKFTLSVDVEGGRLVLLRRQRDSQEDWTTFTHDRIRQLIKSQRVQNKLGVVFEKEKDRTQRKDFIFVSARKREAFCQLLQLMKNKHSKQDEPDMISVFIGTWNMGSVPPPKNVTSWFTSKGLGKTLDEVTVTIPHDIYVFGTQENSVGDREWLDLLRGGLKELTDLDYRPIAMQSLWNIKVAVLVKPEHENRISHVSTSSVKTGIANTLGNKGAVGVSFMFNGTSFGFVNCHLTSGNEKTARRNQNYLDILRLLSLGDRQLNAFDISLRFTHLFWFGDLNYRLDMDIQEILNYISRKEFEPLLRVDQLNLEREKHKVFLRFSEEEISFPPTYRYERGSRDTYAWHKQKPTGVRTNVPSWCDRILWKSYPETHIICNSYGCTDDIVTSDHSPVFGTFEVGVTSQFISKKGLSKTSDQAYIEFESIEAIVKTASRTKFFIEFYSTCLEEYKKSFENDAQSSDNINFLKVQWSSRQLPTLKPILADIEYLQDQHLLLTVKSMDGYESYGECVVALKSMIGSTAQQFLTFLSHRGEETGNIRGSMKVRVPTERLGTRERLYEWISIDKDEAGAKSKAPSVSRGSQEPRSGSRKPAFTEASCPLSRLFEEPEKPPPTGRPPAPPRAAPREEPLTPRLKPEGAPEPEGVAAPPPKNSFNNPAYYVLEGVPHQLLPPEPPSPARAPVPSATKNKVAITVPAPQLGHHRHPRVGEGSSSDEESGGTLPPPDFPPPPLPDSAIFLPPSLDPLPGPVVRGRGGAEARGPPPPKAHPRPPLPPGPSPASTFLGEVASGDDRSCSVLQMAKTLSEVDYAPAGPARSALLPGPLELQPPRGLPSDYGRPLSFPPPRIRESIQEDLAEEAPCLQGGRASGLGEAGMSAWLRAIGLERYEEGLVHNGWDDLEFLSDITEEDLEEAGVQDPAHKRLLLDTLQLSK

[3] = target: T3, SHIP2, endogenous human (human (endogenous in HepG2, SK-Hep-1, Huh7, HEK293T)) (UniProt O15357); assay: co-IP; lysates (1 mg total protein) of HepG2, SK-Hep-1 and Huh7 cells, also serum-starved and stimulated with insulin for the indicated times; anti-IRTKS or anti-SHIP2 antibody (1 ug) at 4 °C overnight, protein-G beads 4 h; IgG as negative control; immunoblot
T3 sequence: T2 sequence

Measured: binding

B1: IRTKS, endogenous human (protein, UniProt Q9UHR4 1-511)
chain: MSRGPEEVNRLTESTYRNVMEQFNPGLRNLINLGKNYEKAVNAMILAGKAYYDGVAKIGEIATGSPVSTELGHVLIEISSTHKKLNESLDENFKKFHKEIIHELEKKIELDVKYMNATLKRYQTEHKNKLESLEKSQAELKKIRRKSQGSRNALKYEHKEIEYVETVTSRQSEIQKFIADGCKEALLEEKRRFCFLVDKHCGFANHIHYYHLQSAELLNSKLPRWQETCVDAIKVPEKIMNMIEEIKTPASTPVSGTPQASPMIERSNVVRKDYDTLSKCSPKMPPAPSGRAYTSPLIDMFNNPATAAPNSQRVNNSTGTSEDPSLQRSVSVATGLNMMKKQKVKTIFPHTAGSNKTLLSFAQGDVITLLIPEEKDGWLYGEHDVSKARGWFPSSYTKLLEENETEAVTVPTPSPTPVRSISTVNLSENSSVVIPPPDYLECLSMGAAADRRADSARTTSTFKAPASKPETAAPNDANGTAKPPFLSGENPFATVKLRPTVTNDRSAPIIR
binds: all assays above
